Results reported in PubChem BioAssay AID540276 (National Center for Advancing Translational Sciences (NCATS), 2011).
Where “and” joins values, the source holds several entries; their conditions need not be identical. Identical values can stand only once. In all, about 300,000 compounds went through this assay and about 5,400 (1.8%) were called active. The inconclusive results got no clear call from the source; some entries with a clear call stand among them for comparison. The call rests on the fitted dose curve; tested in HEK293 cells. Potencies beside an inconclusive call are fits to weak or partial responses and may not hold up.

Assay: qHTS for inhibitors of binding or entry into cells for Marburg Virus
Conditions: Marburg virus pseudotyped entry inhibition, cell reporter; series mostly up to 37.8 µM
Potency means the concentration at half of the fitted maximal effect.

Question: With O=C1C=C(NCc2ccc(Cl)cc2Cl)C2(CCCCC2)O1 as the compound, how does the Potency read?
Answer: inconclusive: 32.6 µM [inhibitor, single point]

Question: With Cc1ccc(S(=O)(=O)Nc2cc(C)cn(Cc3ccc(F)cc3)c2=O)cc1 as the compound, how does the Potency read?
Answer: inconclusive: 10 µM [inhibitor, partial curve]

Question: For Cc1ccc(C)n1NC(=O)c1ccc([N+](=O)[O-])cc1, which Potency is on record?
Answer: inconclusive: 6.31 µM [inhibitor, partial curve, poor fit]

Question: For CCNC(=S)Nc1ccc(Cl)cc1, which Potency is on record?
Answer: inactive

Question: Which Potency does the source give for Fc1ccc(CCNCc2ccc(Br)cc2)cc1 here?
Answer: inconclusive: 35.5 µM [inhibitor, partial curve, poor fit]

Question: With CCc1nn(CC(=O)Nc2ccc(C)c(F)c2)c(=O)c2cc3cc(C)ccc3n12 as the compound, how does the Potency read?
Answer: inconclusive: 15.8 µM [activator, single point]

Question: With Oc1cccc(-c2nc3ccccc3s2)c1 as the compound, how does the Potency read?
Answer: active: 7.08 µM

Question: With Cc1ccc(NC(=O)COC(=O)COc2ccc(Cl)cc2C)c([N+](=O)[O-])c1 as the compound, how does the Potency read?
Answer: inconclusive: 8.91 µM [activator, partial curve, poor fit]

Question: With COc1cccc(CN2CCCC(N3CCc4ccccc4C3)C2)c1O (stereo not drawn) as the compound, how does the Potency read?
Answer: inconclusive: 22.4 µM [activator, partial curve, poor fit]

Question: With CC(C)(C)c1ccc(S(=O)(=O)CC(O)CSc2nc3c(cc2C#N)CCCC3)cc1 (stereo not drawn) as the compound, how does the Potency read?
Answer: inconclusive: 5.01 µM [activator, single point]

Question: For O=C(N/N=C/C=C\c1ccccc1[N+](=O)[O-])c1ccncc1, which Potency is on record?
Answer: inactive

Question: With Cc1cccc(C)c1Nc1c(-c2ccccc2Cl)nc2cnccn12 as the compound, how does the Potency read?
Answer: inconclusive: 20 µM [inhibitor, partial curve, poor fit]

Question: Which Potency does the source give for Brc1ccc(Cn2c(-c3ccc(Br)o3)nc3ccccc32)o1 here?
Answer: inactive

Question: For CCCN(Cc1cccs1)C(=O)Nc1cc(C)ccc1OC, which Potency is on record?
Answer: inactive

Question: Which Potency does the source give for COc1ccc(-c2csc(NC(=O)Cc3ccccc3F)n2)c(OC)c1 here?
Answer: inconclusive: 20 µM [inhibitor, partial curve, poor fit]

Question: With O=C(c1ccc2c(c1)N(Cc1ccc(Cl)cc1)C(=O)c1ccccc1S2(=O)=O)N1CCCCCC1 as the compound, how does the Potency read?
Answer: inconclusive: 35.5 µM [inhibitor, single point]

Question: Which Potency does the source give for O=C(CCn1nc(-c2ccc(F)cc2)ccc1=O)NCc1ccccc1 here?
Answer: inconclusive: 10 µM [inhibitor, single point]

Question: Which Potency does the source give for CN(C)S(=O)(=O)c1ccc(C(=O)OCCc2ccccc2)cc1 here?
Answer: inactive

Question: With CNc1ccccc(-c2ccc3ccccc3n2)c1=O as the compound, how does the Potency read?
Answer: inconclusive: 20 µM [inhibitor, single point]

Question: For CC(=O)OC1=CN(Cc2ccccc2)S(=O)(=O)c2ccccc21, which Potency is on record?
Answer: inactive

Question: Which Potency does the source give for COc1cc(/C=C/C(=O)OCC(=O)NC2CC2)cc(S(=O)(=O)N2CCc3ccccc32)c1OC here?
Answer: inconclusive: 6.31 µM [activator, single point]

Question: With CCCCN1CC(c2nc3ccccc3n2CCCCOc2ccccc2C)CC1=O (stereo not drawn) as the compound, how does the Potency read?
Answer: inconclusive: 22.4 µM [inhibitor, single point]

Question: For Cc1ccc(C)c(S(=O)(=O)C(C#N)c2nc3ccccc3nc2N2CCOCC2)c1 (stereo not drawn), which Potency is on record?
Answer: inconclusive: 1.64 µM [inhibitor, partial curve, poor fit]

Question: Which Potency does the source give for Cc1csc(SCC(=O)c2c(N)n(C)c(=O)n(C)c2=O)n1 here?
Answer: inconclusive: 2.82 µM [activator, full curve, poor fit]

Question: For Cn1c(=O)c(-c2cc(=O)[nH][nH]2)c(O)c2ccccc21, which Potency is on record?
Answer: inconclusive: 5.01 µM [activator, full curve, poor fit]

Question: For COc1ccc(NC(=O)CSc2nc3ncccc3[nH]2)cc1OC, which Potency is on record?
Answer: inactive

Question: For O=C(CCNNC(=O)c1ccncc1)NCc1ccccc1, which Potency is on record?
Answer: inactive and inconclusive: 13 µM [activator, partial curve, poor fit]

Question: Which Potency does the source give for Cc1ccc(CN2CCN(Cc3ccc(C)s3)CC2CCO)cc1 (stereo not drawn) here?
Answer: inconclusive: 11.2 µM [inhibitor, partial curve, poor fit]

Question: Which Potency does the source give for CC(c1ccco1)N(C(=O)c1cccc(S(=O)(=O)N(C)C)c1)c1ccccn1 (stereo not drawn) here?
Answer: inactive

Question: For O=C(c1ccc2c(c1)OCO2)C1CCCN(Cc2ccc(F)c(F)c2)C1 (stereo not drawn), which Potency is on record?
Answer: inconclusive: 35.5 µM [inhibitor, single point]

Question: For Cc1ccc(-n2c3nc(=O)[nH]c(=O)c-3cc3cc([N+](=O)[O-])ccc32)cc1, which Potency is on record?
Answer: inconclusive: 3.55 µM [inhibitor, partial curve, poor fit]

Question: Which Potency does the source give for C=CCn1c(CCC(O)COCCC)n[nH]c1=S (stereo not drawn) here?
Answer: inactive

Question: With O=C(CCCCCn1c(=S)[nH]c2ccccc2c1=O)N1CCC2(CC1)OCCO2 as the compound, how does the Potency read?
Answer: inactive

Question: For COc1ccccc1C/C(N)=N/OC(=O)c1cccs1, which Potency is on record?
Answer: active: 11.2 µM

Question: With O=C(CC(=O)Nc1ccc(Cl)cc1Cl)Nc1ccc(Cl)cc1Cl as the compound, how does the Potency read?
Answer: inconclusive: 3.55 µM [inhibitor, partial curve, poor fit]

Question: Which Potency does the source give for Cc1cccc(NS(=O)(=O)c2cccc(C(=O)NCCCN3CCOCC3)c2)c1 here?
Answer: inactive

Question: For O=C(CCC1CCCN(C(=O)c2cccc(F)c2)C1)N1CCN(c2ccccn2)CC1 (stereo not drawn), which Potency is on record?
Answer: inactive

Question: Which Potency does the source give for O=C(CNC(=S)N(CCCN1CCOCC1)Cc1cccs1)N1CCOCC1 here?
Answer: inconclusive: 1.26 µM [inhibitor, single point]

Question: Which Potency does the source give for Cc1cc(S(=O)(=O)N(Cc2ccccc2Cl)c2ccc3c(c2)CCC3)ccc1-n1cnnn1 here?
Answer: inconclusive: 1 µM [inhibitor, partial curve, poor fit]

Question: Which Potency does the source give for CCOC(=O)c1ccccc1NS(=O)(=O)c1ccc(OC)cc1 here?
Answer: inconclusive: 8.2 µM [inhibitor, partial curve, poor fit]

Question: With CC(C)C(=O)NC(NC(=O)C(C)C)c1ccc([N+](=O)[O-])cc1 as the compound, how does the Potency read?
Answer: inconclusive: 5.62 µM [inhibitor, single point]

Question: Which Potency does the source give for O=C(CCNC(=O)c1ccc(Br)cc1)NNC(=O)c1ccccc1O here?
Answer: inconclusive: 35.5 µM [inhibitor, single point]

Question: With COc1ccc(C(=O)c2ccc(N(C)C)cc2)c(OC)c1 as the compound, how does the Potency read?
Answer: inconclusive: 0.92 µM [inhibitor, full curve, poor fit]

Question: With COc1ccc(CN2CCNC(=O)C2CC(=O)N(C)Cc2nccn2C)cc1OC (stereo not drawn) as the compound, how does the Potency read?
Answer: inconclusive: 2.51 µM [activator, full curve, poor fit]

Question: With Cc1nc2c(c(C)c1CCC(=O)N1CCN(c3ccccc3)CC1)c(=O)n(C)c(=O)n2C as the compound, how does the Potency read?
Answer: inactive

Question: With CCOC(=O)[C@H](C)Oc1ccc2c(C)cc(=O)oc2c1C(C)=O as the compound, how does the Potency read?
Answer: inactive

Question: For O=[N+]([O-])c1cccnc1N1CCC(c2cc(-c3ccc(Cl)cc3Cl)n[nH]2)CC1, which Potency is on record?
Answer: inconclusive: 15.8 µM [inhibitor, single point]

Question: Which Potency does the source give for Cc1cc(OCc2ccc(C(=O)Nc3ccc(C(=O)O)cc3)o2)ccc1Cl here?
Answer: inconclusive: 3.98 µM [inhibitor, full curve, poor fit]

Question: Which Potency does the source give for COc1ccc(C(=O)/C(C#N)=N/Nc2cccc([N+](=O)[O-])c2)cc1 here?
Answer: active: 14.6 µM

Question: With COc1ccc(N(CC(=O)Nc2cc(C)ccc2C)S(=O)(=O)c2ccccc2[N+](=O)[O-])c(OC)c1 as the compound, how does the Potency read?
Answer: inconclusive: 4.47 µM [inhibitor, single point]

Question: With Cc1cc(C)c(S(=O)(=O)Nc2ccc3oc4c(c3c2)CCCC4)cc1C as the compound, how does the Potency read?
Answer: inconclusive: 3.16 µM [inhibitor, single point]

Question: With CC(O)(C#CCN1CCOCC1)c1ccccc1 (stereo not drawn) as the compound, how does the Potency read?
Answer: inconclusive: 6.31 µM [activator, partial curve]

Question: Which Potency does the source give for COc1ccc(CCNC(=O)CCN2C(=O)COc3ccccc32)cc1OC here?
Answer: inactive

Question: Which Potency does the source give for COCCOC(=O)c1c(NC(=O)CN2c3ccccc3CC2C)sc(C(N)=O)c1C (stereo not drawn) here?
Answer: inconclusive: 20 µM [inhibitor, single point]

Question: For CC(C)[C@H](NC(=O)c1nn(Cc2ccccc2)c(=O)c2ccccc12)C(=O)O, which Potency is on record?
Answer: inconclusive: 11.2 µM [activator, single point]

Question: With Cc1cc(C)c2c(CN3CCCCCCC3)cc(=O)oc2c1 as the compound, how does the Potency read?
Answer: inconclusive: 0.0887 µM [activator, full curve, poor fit]

Question: Which Potency does the source give for O=C(Nc1ccc([N+](=O)[O-])cc1)c1nc[nH]c1C(=O)NC1CCCCC1 here?
Answer: inactive

Question: For COc1ccc(C(C)=O)cc1CSc1nncn1-c1ccccc1, which Potency is on record?
Answer: inactive

Question: Which Potency does the source give for Cc1ccc(C(=O)Nc2nc(C(C)(C)C)cs2)s1 here?
Answer: inconclusive: 7.94 µM [inhibitor, partial curve, poor fit]

Question: Which Potency does the source give for CCC(=O)c1ccc2c(c1)N(CCCN(C)C)c1ccccc1S2 here?
Answer: active: 20.6 µM and active: 11.2 µM

Question: Which Potency does the source give for c1ccc(CNc2nc(-c3ccccc3)nc3ccccc23)cc1 here?
Answer: inconclusive: 4.47 µM [inhibitor, full curve, poor fit]

Question: With CCOC(=O)C1=C(COC(=O)/C=C/c2ccc(Cl)cc2)NC(=O)NC1C (stereo not drawn) as the compound, how does the Potency read?
Answer: inconclusive: 20 µM [activator, single point]

Question: With O=C(NC1CCCCCC1)c1ccc(Cl)c(S(=O)(=O)N2CCOCC2)c1 as the compound, how does the Potency read?
Answer: inactive

Question: For COCCCNC(=S)NNC(=O)c1ccccn1, which Potency is on record?
Answer: inconclusive: 25.1 µM [inhibitor, partial curve, poor fit]

Question: For Cc1ccccc1CNC(=O)C(=O)NCCC1CCCCN1S(=O)(=O)c1cccs1 (stereo not drawn), which Potency is on record?
Answer: active: 10 µM

Question: For CCOC(=O)c1nnn(-c2nonc2N)c1CS(=O)(=O)c1ccccc1, which Potency is on record?
Answer: inactive

Question: Which Potency does the source give for O=C(CNS(=O)(=O)c1cccs1)N1CCN(c2ccccc2Cl)CC1 here?
Answer: inconclusive: 28.2 µM [activator, partial curve, poor fit]

Question: For COc1ccc(CNS(=O)(=O)NCc2ccccc2F)cc1, which Potency is on record?
Answer: inconclusive: 7.94 µM [inhibitor, partial curve, poor fit]
